# Data as given in publication PMC3275588, “Cellular Growth Kinetics Distinguish a Cyclophilin Inhibitor from an HSP90 Inhibitor as a Selective Inhibitor of Hepatitis C Virus” (PLoS ONE, 2012).
# Test system: luciferase-encoding HCV replicon
# Assay: HCV replicon Renilla luciferase antiviral assay
# Assay type: cell-based
# Conditions: Hepatitis C virus, 72 h
# Protocol: Using a stable cell line replicating a luciferase-encoding HCV replicon, we measured viral replication levels (Renilla luciferase) across a range of drug concentrations (2 nM to 44.4 µM) three days post drug addition. In parallel, we measured intracellular esterase activity as a surrogate for cell viability using the Calcein AM reagent.
# Renilla luciferase replicon cell assays were performed as previously described. Calcein AM (Anaspec, Fremont, CA) and CellTiter-Glo (Promega, Madison, WI) readouts were performed as instructed by the manufacturer.
smiles,measurement,value
"COc1cc2c(c(OC)c1OC)-c1ccc(OC)c(=O)cc1[C@@H](NC(C)=O)CC2 [Colchicine, colchicine]",EC50,9 nM
